For this test, the system named is BDF1 mice, P388 leukemia ip, median survival T/C. The experiment in a line: NCI In Vivo Anticancer Drug Screen. Data for tumor model P388 Leukemia (intraperitoneal) in B6D2F1 (BDF1) mice. The following applies: T/C endpoint: median survival time, higher T/C = longer survival. In short, it runs like this:
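Each value expresses how treatment altered survival: treated-mouse outcome over vehicle-mouse outcome, both groups bearing the transplanted tumour.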

[1] abbreviates: dose: 50.0 mg/kg/injection, schedule: Q01DX009 (ip), vehicle: saline with Tween-80.
Setting [2] is: dose: 400.0 mg/kg/injection, schedule: Q04DX003 (ip), vehicle: saline with Tween-80.
The mark [3] stands for this setting: dose: 200.0 mg/kg/injection, schedule: Q04DX003 (ip), vehicle: saline with Tween-80.
Setting [4] is: dose: 12.5 mg/kg/injection, schedule: Q01DX009 (ip), vehicle: saline with Tween-80.

The list does not hold the whole screen: it gathers tests that were run many times, whatever their T/C, doses with no T/C, and many T/C values between a quarter and a half above the control. Further doses and runs are listed elsewhere. T/C: endpoint of the treated group in % of that of the vehicle group. Some entries give survivors of the animals treated and no T/C: the source holds a T/C of zero for them, seemingly a mark for toxic or unscored doses. Some survivor counts are full or nearly so, which does not show that the dose was tolerated: the source hardly ever lists a survival T/C far under the control, and the zero likely stands for such cases as well. Counts of survivors are from the toxicity check (mostly the fifth day) where no day follows; animals may have died later. Schedules are NCI's codes, taken here to give the interval after Q, in days (D) or hours (H), and the number of doses after X. Some entries hold several experiments; the results are listed from low to high. For survival time, this PubChem deposit counts one and a half times the control or more as active, and values a quarter to a half above the control carry no call in these data; other NCI protocols may use other cut-offs. Some T/C values are followed by the survivors on the day toxicity was checked, most often the fifth; without a count, all were alive then.

For the compound `CC1CCC(NC(=O)N(CCCl)N=O)CC1` (centres undefined), the T/C (dose: 2.3 mg/kg/injection, schedule: Q01DX009 (ip), vehicle: Klucel (hydroxypropylcellulose) (HPC)) is 144 % of control; the T/C (dose: 5.4 mg/kg/injection, schedule: Q01DX009 (ip), vehicle: Klucel (hydroxypropylcellulose) (HPC)) was 142 % of control; the T/C (dose: 8.2 mg/kg/injection, schedule: Q01DX009 (ip), vehicle: Klucel (hydroxypropylcellulose) (HPC)) is 125 % of control; the T/C (dose: 10.0 mg/kg/injection, schedule: Q04DX003 (ip), vehicle: saline with Tween-80) is 137 % of control; the T/C (dose: 12.5 mg/kg/injection, schedule: Q01DX009 (ip), vehicle: Klucel (hydroxypropylcellulose) (HPC)) was 145 % of control; the T/C (dose: 14.0 mg/kg/injection, schedule: Q04DX003 (ip), vehicle: saline with Tween-80, evaluated on day 5) is 197 and 216 % of control. The T/C by setting is: (dose: 14.0 mg/kg/injection, schedule: Q04DX003 (ip), vehicle: saline with Tween-80, evaluated on day 60) 197 and 216 % of control; (dose: 20.0 mg/kg/injection, schedule: Q01DX001 (ip), vehicle: saline with Tween-80, evaluated on day 5) 178, 179, 196 % of control; (dose: 20.0 mg/kg/injection, schedule: Q01DX001 (ip), vehicle: saline with Tween-80, evaluated on day 60) 178, 179, 196 % of control; (dose: 21.0 mg/kg/injection, schedule: Q04DX003 (ip), vehicle: saline with Tween-80, evaluated on day 5) 229 and 273 % of control; (dose: 21.0 mg/kg/injection, schedule: Q04DX003 (ip), vehicle: saline with Tween-80, evaluated on day 60) 229 and 273 % of control; (dose: 24.0 mg/kg/injection, schedule: Q01DX001 (ip), vehicle: saline with Tween-80, evaluated on day 5) 129, 274, 379, 400 % of control. The T/C is 545 % of control (dose: 24.0 mg/kg/injection, schedule: Q01DX001 (ip), vehicle: saline with Tween-80, evaluated on day 60); 216, 226, 314, 348, 425, 534 % of control (dose: 30.0 mg/kg/injection, schedule: Q01DX001 (ip), vehicle: saline with Tween-80, evaluated on day 5); 216, 226, 348, 534 % of control (dose: 30.0 mg/kg/injection, schedule: Q01DX001 (ip), vehicle: saline with Tween-80, evaluated on day 60); 250, 388, 442, 554 % of control (dose: 36.0 mg/kg/injection, schedule: Q01DX001 (ip), vehicle: saline with Tween-80, evaluated on day 5); 545 % of control (dose: 36.0 mg/kg/injection, schedule: Q01DX001 (ip), vehicle: saline with Tween-80, evaluated on day 60); 254, 258, 535, 562 % of control (dose: 45.0 mg/kg/injection, schedule: Q01DX001 (ip), vehicle: saline with Tween-80, evaluated on day 5). Besides, the T/C (dose: 45.0 mg/kg/injection, schedule: Q01DX001 (ip), vehicle: saline with Tween-80, evaluated on day 60) is 254, 258, 535, 562 % of control and the T/C (dose: 54.0 mg/kg/injection, schedule: Q01DX001 (ip), vehicle: saline with Tween-80) is 136 % of control. Further, the survivor count is recorded as 10 of 10 (dose: 20.0 mg/kg/injection, schedule: Q01DX001 (ip), vehicle: alcohol); 10 of 10 (dose: 40.0 mg/kg/injection, schedule: Q01DX001 (ip), vehicle: alcohol); 3 of 6 (dose: 50.0 mg/kg/injection, schedule: Q01DX009 (ip), vehicle: Klucel (hydroxypropylcellulose) (HPC)); 6 of 6 (dose: 100.0 mg/kg/injection, schedule: Q04DX003 (ip), vehicle: alcohol).

`Cc1ccc(S(=O)(=O)OCCN(CCOS(=O)(=O)c2ccc(C)cc2)c2cc(OCc3ccccc3)cc(OCc3ccccc3)c2)cc1`: the survivor count (dose: 25.0 mg/kg/injection, schedule: Q01DX009 (ip), vehicle: water) is on record as 5 of 6; the survivor count (dose: 50.0 mg/kg/injection, schedule: Q01DX009 (ip), vehicle: water) is given as 6 of 6; the survivor count (dose: 200.0 mg/kg/injection, schedule: Q01DX009 (ip), vehicle: water) is listed as 6 of 6; the survivor count (dose: 400.0 mg/kg/injection, schedule: Q01DX009 (ip), vehicle: water) is 6 of 6.

`CN(C)P(=O)(Oc1ccccc1)N(C)C`: the T/C under setting [1] is 135 % of control.

`COCC(O)CCl` (centres undefined): under setting [2], the survivor count is recorded as 2 of 6.

`Nc1nc(=S)c2ncn(C3OC(COC(=O)c4ccc(Cl)cc4)C(OC(=O)c4ccc(Cl)cc4)C3OC(=O)c3ccc(Cl)cc3)c2[nH]1` (centres undefined): the T/C reads like this: (dose: 66.0 mg/kg/injection, schedule: Q01DX009 (ip), vehicle: saline with Tween-80) 125 % of control; (dose: 100.0 mg/kg/injection, schedule: Q01DX009 (ip), vehicle: saline with Tween-80) 136 and 140 % of control; (dose: 150.0 mg/kg/injection, schedule: Q01DX009 (ip), vehicle: saline with Tween-80) 125 % of control; under setting [3], 145 % of control. The survivor count (dose: 400.0 mg/kg/injection, schedule: Q01DX009 (ip), vehicle: saline with Tween-80) is on record as 5 of 6.

Regarding `COc1cccc2c1C(=O)c1c(O)c3c(c(O)c1C2=O)C[C@@](O)(/C(C)=N/NC(=O)c1ccc(Cl)c(Cl)c1)C[C@@H]3OC1CC(N)C(O)C(C)O1` (some centres undefined), the T/C runs as follows: (dose: 0.5 mg/kg/injection, schedule: Q01DX009 (ip), vehicle: water) 127 % of control; (dose: 8.0 mg/kg/injection, schedule: Q01DX009 (ip), vehicle: water) 130 % of control.

With `CC[N+](CC)(CC)CC`, the T/C (dose: 6.0 mg/kg/injection, schedule: Q01DX009 (ip), vehicle: saline with Tween-80) was 131 % of control and the T/C (dose: 6.25 mg/kg/injection, schedule: Q01DX009 (ip), vehicle: saline with Tween-80) was 135 % of control. Also, the survivor count is, setting by setting: (dose: 9.0 mg/kg/injection, schedule: Q01DX009 (ip), vehicle: saline with Tween-80) 5 of 6; under setting [4], 6 of 6.

For `COc1ccc(CC(=O)NCCc2ccccc2)cc1OC`, the survivor count is, setting by setting: under setting [3], 1 of 6; under setting [2], 0 of 6.

`COc1cc(Br)cc(/C=C/[N+](=O)[O-])c1OC`: the T/C under setting [4] was 141 % of control and the T/C (dose: 25.0 mg/kg/injection, schedule: Q01DX009 (ip), vehicle: saline with Tween-80) was 148 % of control [5 of 6 alive]. Also, the survivor count under setting [1] was 4 of 6 and 5 of 6.

In the case of `COc1cc([C@@H]2c3cc4c(cc3[C@H](OC(C)=O)[C@H]3COC(=O)[C@@H]23)OCO4)cc(OC)c1OC`, the T/C reads like this: (dose: 33.0 mg/kg/injection, schedule: Q01DX009 (ip), vehicle: saline with Tween-80) 136 % of control [5 of 6 alive]; (dose: 88.0 mg/kg/injection, schedule: Q04DX003 (ip), vehicle: saline with Tween-80) 130 % of control [5 of 6 alive]; (dose: 100.0 mg/kg/injection, schedule: Q04DX003 (ip), vehicle: saline sonified) 133 % of control; (dose: 132.0 mg/kg/injection, schedule: Q04DX003 (ip), vehicle: saline with Tween-80) 140 % of control; under setting [3], 140 % of control. The survivor count is, setting by setting: (dose: 44.0 mg/kg/injection, schedule: Q04DX003 (ip), vehicle: saline sonified) 6 of 6; (dose: 75.0 mg/kg/injection, schedule: Q01DX009 (ip), vehicle: saline with Tween-80) 4 of 6; (dose: 100.0 mg/kg/injection, schedule: Q01DX010 (ip), vehicle: carboxymethylcellulose (CMC)) 6 of 6; (dose: 300.0 mg/kg/injection, schedule: Q04DX003 (ip), vehicle: saline with Tween-80) 4 of 6 and 6 of 6.

For the compound `O=S(=O)(O)CCN(CCO)CCO`, for the setting “dose: 200.0 mg/kg/injection, schedule: Q01DX009 (ip), vehicle: saline”, the survivor count is reported as 6 of 6.

`O=C(O)C1CC(c2ccccc2)OC1=O` (centres undefined): where the note is “dose: 400.0 mg/kg/injection, schedule: Q01DX009 (ip), vehicle: gum acacia”, the survivor count is listed as 5 of 6.

`CN(C)CCCNc1nc(NCCCN(C)C)c2nc(-c3ccccc3)c(-c3ccccc3)nc2n1`: the survivor count by setting is: (dose: 100.0 mg/kg/injection, schedule: Q01DX005 (ip), vehicle: saline with Tween-80) 2 of 5; (dose: 200.0 mg/kg/injection, schedule: Q01DX005 (ip), vehicle: saline with Tween-80) 0 of 5.

For the origin of these results see PubChem BioAssay AID328 (DTP/NCI, 2004).
